Test results: patent publication US12427149B2, “Methods and compositions for the prevention and treatment of hearing loss” (Ting Therapeutics, Inc., priority 2019, dated 2025)
Some entries share one result that the patent states for a list of compounds.

System: mouse cochlear explants
Method: Dab alone or Dab added 1 h before cisplatin (150 μM) to P3 FVB cochlear explants for 24 h.
Now referring to FIG. 9, testing of a B-Raf/MEK1/2 inhibitor combination in mouse cochlear explant cultures. Compounds alone or combination of the compounds were added 1 h before cisplatin (150 μM) to P3 FVB cochlear explants for 24 h, and number of outer hair cells per 160 μm of middle turn regions of the cochlea were counted by phalloidin staining, mean±SEM, P=*<0.05, P=***<0.001, compared to cisplatin alone by unpaired two-tailed Student's t-test.
Methods of using a zebrafish model system to evaluate small molecules capable of decreasing, inhibiting or preventing sensory hair cell damage or death are provided. […] Compounds alone or compounds added 1 h before cisplatin (150 μM) to P3 FVB cochlear explants for 24 h, and number of outer hair cells per 160 μm of middle turn regions of the cochlea were counted by phalloidin staining, mean±SEM, P=*<0.05, P=**<0.005, ***P<0.0005 compared to cisplatin alone by unpaired two-tailed Student's t-test.
Compounds alone (purple bar) or combination of the compounds were added 1 h before cisplatin (150 μM) to P3 FVB cochlear explants for 24 hrs, and number of outer hair cells per 160 μm of middle turn regions of the cochlea were counted by phalloidin staining, mean±SEM, P=*<0.05, P=**<0.005, compared to cisplatin alone by unpaired two-tailed Student's t-test.

## CCCS(=O)(=O)Nc1ccc(F)c(C(=O)c2c[nH]c3ncc(Cl)cc23)c1F [PLX-4750]
  LD50 in mouse cochlear explants: greater than 3 μM
